Values from PubChem BioAssay AID1224828 (NIAID, 2016)

- Purpose: 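Knock-downs that increase or decrease LPS-induced p65 nuclear translocation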 (primary screen)
- System: mouse RAW264.7 G9 macrophage reporter cells (GFP-p65, Tnf promoter-mCherry)
- Reagents: siRNA pool against mouse genes, 100 nM
- Duration: 2 days siRNA transfection, then 40 min LPS before fixation
- Treatment: LPS (Salmonella minnesota R595) at 10 ng/ml
- Read-out: 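Imaged p65 nuclear translocation ratio, normalised to the plate median, converted to robust z-scores and averaged across two replicates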
- Direction: p65 translocation robust z-score: higher = more nuclear NF-kappaB p65 after LPS than the plate median; nuclear/cytoplasmic p65 ratio: higher = more nuclear NF-kappaB p65
- Hit rule: 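Called active when z exceeds 3.3 or falls under -1.56 (median of Tlr4 controls), giving activity score of at least 50; no calls for control wells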
- Meaning of the calls: active = hit (p65 shift raised or lowered); inactive = no clear change
Here is an unselected part of about 17,000 deposited reagents. 762 of all reagents (4.5%) were called active. 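Active calls include both raised and lowered p65 entry, mostly lowered; wells with fewer than 50 cells lack a z-score.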 The raw values are shown without normalisation. A number with no mark means an inactive call. Some reagents were tested in more than one well and are listed for each.

| target gene | p65 translocation robust z-score | nuclear/cytoplasmic p65 ratio, rep 1 | nuclear/cytoplasmic p65 ratio, rep 2 | low cell count flag |
| --- | --- | --- | --- | --- |
| Smim14 | -0.97 | 1.34 | 1.38 | enough cells to score |
| Tuba8 | -0.35 | 1.47 | 1.45 | enough cells to score |
| Kctd7 | -0.41 | 1.38 | 1.39 | enough cells to score |
| Hmg20a | 0.52 | 1.54 | 1.41 | enough cells to score |
| Adrm1 | – | 1.29 | 1.68 | fewer than 50 cells per well; well left out of scoring |
| Kdm3b | -0.96 | 1.41 | 1.3 | enough cells to score |
| D7Ertd413e | -1.29 | 1.36 | 1.37 | enough cells to score |
| Or8b1c | 0.74 | 1.5 | 1.39 | enough cells to score |
| Cldn13 | -1.11 | 1.42 | 1.6 | enough cells to score |
| Galc | 2.34 | 1.81 | 1.61 | enough cells to score |
| Crnkl1 | -1.98 (active) | 1.35 | 1.46 | enough cells to score |
| Chmp4c | – | 1.25 | 1.47 | fewer than 50 cells per well; well left out of scoring |
| Magea2 | 1.2 | 1.78 | 1.83 | enough cells to score |
| Ammecr1l | -2.77 (active) | 1.11 | 0.997 | enough cells to score |
| Dusp12 | 0.08 | 1.47 | 1.41 | enough cells to score |
| Pfn1 | 0.42 | 1.45 | 1.52 | enough cells to score |
| Anxa4 | 0.6 | 1.72 | 1.7 | enough cells to score |
| Srp9 | 0.12 | 1.5 | 1.19 | enough cells to score |
| Crat | 0.82 | 1.58 | 1.46 | enough cells to score |
| Inppl1 | -0.9 | 1.35 | 1.24 | enough cells to score |
| Ifi202b | 0.35 | 1.59 | 1.39 | enough cells to score |
| Ankrd22 | 0.57 | 1.7 | 1.76 | enough cells to score |
| Isoc2b | – | 1.15 | 1.15 | fewer than 50 cells per well; well left out of scoring |
| Edem1 | 0.69 | 1.65 | 1.38 | enough cells to score |
| Mllt1 | 0.88 | 1.57 | 1.45 | enough cells to score |
| Aif1l | -0.61 | 1.4 | 1.3 | enough cells to score |
| Zscan2 | – | 1.15 | 1.07 | fewer than 50 cells per well; well left out of scoring |
| Or6f1 | – | 1.31 | 1.21 | fewer than 50 cells per well; well left out of scoring |
| Tax1bp1 | -1.37 | 1.41 | 1.25 | enough cells to score |
| Zfp287 | – | 1.16 | 1.17 | fewer than 50 cells per well; well left out of scoring |
| Eif1a | -0.41 | 1.4 | 1.32 | enough cells to score |
| Ceacam10 | -0.48 | 1.58 | 1.64 | enough cells to score |
| Tsnaxip1 | – | 1.33 | 1.15 | fewer than 50 cells per well; well left out of scoring |
| Tcap | 0.49 | 1.73 | 1.44 | enough cells to score |
| Defb37 | -0.28 | 1.43 | 1.61 | enough cells to score |
| Ifna14 | -1.05 | 1.28 | 1.26 | enough cells to score |
| Nudt14 | -0.84 | 1.65 | 1.35 | enough cells to score |
| Slc5a7 | – | 1.53 | 1.27 | fewer than 50 cells per well; well left out of scoring |
| Cherp | 0.35 | 1.55 | 1.95 | enough cells to score |
| Galnt9 | – | 1.31 | 1.49 | fewer than 50 cells per well; well left out of scoring |
| Edar | -0.32 | 1.4 | 1.35 | enough cells to score |
| Plk1 | – | 0 | 1.3 | fewer than 50 cells per well; well left out of scoring |
| Or5p62 | -2.16 (active) | 1.12 | 1.02 | enough cells to score |
| Or7h8 | -0.04 | 1.44 | 1.24 | enough cells to score |
| Il9 | 0.48 | 1.59 | 1.39 | enough cells to score |
| Muc19 | -2.4 (active) | 1.38 | 1.24 | enough cells to score |
| Plekhh2 | 0.58 | 1.77 | 1.7 | enough cells to score |
| Cd3e | 0.16 | 1.61 | 1.41 | enough cells to score |
| Cd3e | -0.65 | 1.43 | 1.47 | enough cells to score |
| Cenpa | 2.15 | 1.76 | 1.65 | enough cells to score |
| Gemin8 | 0.51 | 1.67 | 1.91 | enough cells to score |
| Etf1 | -1.84 (active) | 1.21 | 1.14 | enough cells to score |
| Cxcl5 | 0.96 | 1.61 | 1.5 | enough cells to score |
| Dio3 | 4.65 (active) | 2.07 | 1.95 | enough cells to score |
| Prr3 | -0.4 | 1.35 | 1.15 | enough cells to score |
| Tefm | -2.2 (active) | 1.24 | 1.14 | enough cells to score |
| Pclaf | – | 1.77 | 1.17 | fewer than 50 cells per well; well left out of scoring |
| Rab8a | 1.14 | 1.57 | 1.78 | enough cells to score |
| Fbxw26 | 1.52 | 2.06 | 1.68 | enough cells to score |
| Ifit1 | 0.4 | 1.48 | 1.43 | enough cells to score |
| Sun2 | -0.93 | 1.24 | 1.56 | enough cells to score |
| Sash3 | -0.59 | 1.32 | 1.34 | enough cells to score |
| Klra12 | -0.7 | 1.42 | 1.26 | enough cells to score |
| Hnrnph2 | -0.37 | 1.66 | 1.42 | enough cells to score |
| Mgat4d | – | 1.47 | 1.59 | fewer than 50 cells per well; well left out of scoring |
| 2900092C05Rik | – | 1.16 | 1.1 | fewer than 50 cells per well; well left out of scoring |
| Abcb9 | -0.66 | 1.57 | 1.51 | enough cells to score |
| Sncaip | – | 1.45 | 1.22 | fewer than 50 cells per well; well left out of scoring |
| Serpinb9f | – | 1.33 | 1.11 | fewer than 50 cells per well; well left out of scoring |
| Epha10 | -0.05 | 1.63 | 1.42 | enough cells to score |
| Rell1 | 0.5 | 1.47 | 1.57 | enough cells to score |
| Mcrs1 | -1.69 (active) | 1.48 | 1.28 | enough cells to score |
| Blvra | 0.26 | 1.74 | 1.57 | enough cells to score |
| Neil2 | 2.88 | 2.04 | 1.97 | enough cells to score |
| Rsph9 | 0.78 | 1.49 | 1.45 | enough cells to score |

Hits (from the list above):
| target gene | p65 translocation robust z-score | nuclear/cytoplasmic p65 ratio, rep 1 | nuclear/cytoplasmic p65 ratio, rep 2 | low cell count flag |
| --- | --- | --- | --- | --- |
| Crnkl1 | -1.98 (active) | 1.35 | 1.46 | enough cells to score |
| Ammecr1l | -2.77 (active) | 1.11 | 0.997 | enough cells to score |
| Or5p62 | -2.16 (active) | 1.12 | 1.02 | enough cells to score |
| Muc19 | -2.4 (active) | 1.38 | 1.24 | enough cells to score |
| Etf1 | -1.84 (active) | 1.21 | 1.14 | enough cells to score |
| Dio3 | 4.65 (active) | 2.07 | 1.95 | enough cells to score |
| Tefm | -2.2 (active) | 1.24 | 1.14 | enough cells to score |
| Mcrs1 | -1.69 (active) | 1.48 | 1.28 | enough cells to score |
